Source: PubChem BioAssay AID2685 (National Center for Advancing Translational Sciences (NCATS), 2010)
The other results are listed elsewhere or left out. The main result of the screen is listed elsewhere. These columns were measured beside it and carry no call. The list favours compounds with an active or inconclusive main result. The note in brackets gives the kind of curve behind each potency; many fits are weak.

Assay: qHTS Assay for Lipid Storage Modulators in Drosophila S3 Cells;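 for cell number change: cells counted by Cell Tracker Red CMTPX staining in the red channel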
Conditions: BODIPY lipid droplet fluorescence, 18-24 h; for cell number change: measured here: cell count max response, cells fed with added oleic acid
Outline: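 Laser-scanning cytometry quantifies lipid droplet accumulation (500–530 nm total intensity; droplet/cell object ratio) in oleic acid-fed (400 uM added) Drosophila S3 cells treated with a concentration series. 20 uM Triacsin C defined 100% inhibition.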

[1] = measured here: lipid fluorescence (Fed channel) AC50, cells fed with added oleic acid
[2] = measured here: cell number channel AC50, cells fed with added oleic acid

Cc1nc(N2CCc3ccccc3C2)[nH]c(=O)c1CCC(C)C
cell number change: 4.48% | AC50 [1]: 29.1 µM [rising, single point]

Cc1nnc2n(Cc3ccccc3)c(=O)c3c4c(sc3n12)CCCC4
cell number change: -41.7% | AC50 [2]: 36.6 µM [falling, partial curve, poor fit] | AC50 [1]: 32.6 µM [falling, single point]

Cc1ccc(C)n1CCN1CCN(C(=O)c2ccco2)CC1
cell number change: 7.67% | AC50 [2]: 0.92 µM [falling, full curve]

CCn1nnnc1SCC(=O)NNC(=O)C1CCCCC1
cell number change: -42.6% | AC50 [2]: 16.4 µM [falling, single point] | AC50 [1]: 29.1 µM [falling, single point]

COc1ccc2cc(C(=O)Nc3ccc(Cl)cc3)sc(=O)c2c1OC
cell number change: -22.4% | AC50 [1]: 14.6 µM [falling, single point]

Cc1nc2ccc(NC(=O)CS(=O)(=O)c3ccc(F)cc3)cc2s1
AC50 [2]: 2.31 µM [rising, single point]

CCCOC(=O)c1sc2nc3c(cc2c1N)C(=O)CCC3
cell number change: 14.2% | AC50 [1]: 6.51 µM [rising, partial curve]

O=C(NNS(=O)(=O)c1ccccc1)C1CCCCC1
cell number change: 9.21% | AC50 [1]: 6.31 µM [rising, single point]

O=C(COn1nnc2ccc(Cl)cc21)Nc1ccc(F)cc1
cell number change: -19.3% | AC50 [1]: 0.00517 µM [falling, full curve, poor fit]

Cc1ccc(C(=O)Nc2ccccc2N2CCCCC2)cc1[N+](=O)[O-]
cell number change: -2.6% | AC50 [2]: 0.116 µM [rising, full curve, poor fit]

O=C(CNC(=O)c1ccco1)Nc1ccc(S(=O)(=O)N2CCCC2)cc1
cell number change: -37.9% | AC50 [2]: 29.1 µM [falling, single point]

NC(=O)N/N=C/c1ccc(N2CCOCC2)s1
cell number change: -7.66% | AC50 [1]: 29.1 µM [rising, single point]

CCOc1ccc(Nc2c3c(nc4ncnn24)CC(C)CC3)cc1 (configuration not stated)
cell number change: 2.36% | AC50 [2]: 1.46 µM [falling, partial curve] | AC50 [1]: 0.731 µM [falling, full curve]

CC(C)CC(=O)Nc1ccnn1C1CCN(C(=O)c2ccc(F)cc2Cl)CC1
cell number change: 2.12% | AC50 [1]: 0.146 µM [rising, full curve, poor fit]

O=C(Cn1c(COc2ccc(Cl)cc2)nc2ccccc21)NCC(F)(F)F
cell number change: -0.104% | AC50 [1]: 0.517 µM [rising, single point]

CCOc1ccc(/C=N/n2cnnc2)cc1
cell number change: 2.9% | AC50 [1]: 18.4 µM [rising, single point]

CCCCNc1c2c3c(cccc3n(C)c1=O)C(=O)c1ccccc1-2
cell number change: -95.8% | AC50 [2]: 16.4 µM [falling, single point] | AC50 [1]: 18.4 µM [falling, single point]
